The target in one experiment is Flag-NLRP3 (UniProt Q96P20). Nature of the experiment: co-IP; HEK293T cells (293FT in the methods) co-transfected for 24 h; lysis buffer 50 mM Tris-HCl, 120 mM NaCl, 1% Triton X-100; anti-Flag agarose resin with 1 mg lysate protein at 4 °C overnight; blots with anti-His, anti-GFP and anti-Flag; different concentrations of ERα-His in Fig. 4F.
A further experiment has as its target Flag-ERα (UniProt P03372). The experiment is described as above.

By UniProt entry, the sequences of proteins in these tests, tags left out.
UniProt Q96P20: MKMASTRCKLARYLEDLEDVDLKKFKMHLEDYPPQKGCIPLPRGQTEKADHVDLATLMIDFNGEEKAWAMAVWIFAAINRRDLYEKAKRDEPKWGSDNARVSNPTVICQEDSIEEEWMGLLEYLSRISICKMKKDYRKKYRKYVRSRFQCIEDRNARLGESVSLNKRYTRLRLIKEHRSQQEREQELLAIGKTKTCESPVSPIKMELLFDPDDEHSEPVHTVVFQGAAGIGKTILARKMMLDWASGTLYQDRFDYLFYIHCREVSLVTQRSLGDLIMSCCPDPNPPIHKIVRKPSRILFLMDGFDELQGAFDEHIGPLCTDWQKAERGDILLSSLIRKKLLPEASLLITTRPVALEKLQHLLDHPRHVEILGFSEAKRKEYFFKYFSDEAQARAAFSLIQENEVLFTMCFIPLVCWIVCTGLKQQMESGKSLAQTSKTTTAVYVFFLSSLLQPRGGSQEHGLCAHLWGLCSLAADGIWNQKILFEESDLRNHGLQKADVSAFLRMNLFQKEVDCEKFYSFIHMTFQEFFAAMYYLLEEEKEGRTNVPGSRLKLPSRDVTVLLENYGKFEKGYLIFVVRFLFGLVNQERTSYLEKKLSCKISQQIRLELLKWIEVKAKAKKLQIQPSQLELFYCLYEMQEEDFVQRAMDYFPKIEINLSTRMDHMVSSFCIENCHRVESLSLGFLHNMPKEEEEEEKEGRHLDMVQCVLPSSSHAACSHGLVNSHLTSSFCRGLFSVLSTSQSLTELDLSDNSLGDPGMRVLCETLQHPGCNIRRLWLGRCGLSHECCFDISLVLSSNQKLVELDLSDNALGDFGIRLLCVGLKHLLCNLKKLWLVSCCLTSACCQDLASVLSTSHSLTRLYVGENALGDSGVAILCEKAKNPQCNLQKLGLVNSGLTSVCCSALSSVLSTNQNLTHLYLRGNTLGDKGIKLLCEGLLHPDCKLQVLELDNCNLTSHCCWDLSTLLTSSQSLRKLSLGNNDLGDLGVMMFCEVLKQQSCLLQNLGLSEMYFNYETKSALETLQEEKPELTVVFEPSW
UniProt P03372: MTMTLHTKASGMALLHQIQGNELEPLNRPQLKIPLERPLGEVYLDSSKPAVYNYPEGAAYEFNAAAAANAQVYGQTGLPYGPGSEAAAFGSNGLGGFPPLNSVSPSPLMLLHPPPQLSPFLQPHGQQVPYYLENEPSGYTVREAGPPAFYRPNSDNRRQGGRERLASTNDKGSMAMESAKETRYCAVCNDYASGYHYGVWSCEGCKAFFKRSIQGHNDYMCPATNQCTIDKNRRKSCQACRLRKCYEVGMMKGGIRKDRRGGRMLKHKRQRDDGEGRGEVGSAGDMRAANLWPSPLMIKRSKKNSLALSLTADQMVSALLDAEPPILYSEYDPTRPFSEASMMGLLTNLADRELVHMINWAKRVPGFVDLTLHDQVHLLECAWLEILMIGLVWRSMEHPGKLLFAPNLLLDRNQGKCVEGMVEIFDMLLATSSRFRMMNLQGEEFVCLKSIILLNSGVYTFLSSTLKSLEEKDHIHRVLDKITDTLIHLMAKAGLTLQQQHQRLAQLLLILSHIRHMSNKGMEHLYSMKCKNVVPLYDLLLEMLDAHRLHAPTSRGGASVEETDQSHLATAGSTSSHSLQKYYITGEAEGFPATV
UniProt Q9ULZ3: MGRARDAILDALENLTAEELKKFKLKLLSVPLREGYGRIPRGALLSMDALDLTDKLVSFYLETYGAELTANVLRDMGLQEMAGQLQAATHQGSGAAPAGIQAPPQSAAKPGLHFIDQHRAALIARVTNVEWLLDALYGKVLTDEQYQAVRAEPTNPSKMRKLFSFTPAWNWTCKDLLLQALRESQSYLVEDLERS

Results are given in words; binding and its absence hold for the method and conditions named. In cells and extracts the contact can be indirect. Some entries that bind do so weakly or less than the wild type.

Data on two substances can be found in article PMC11006911.

For the substance “ERα-His (estrogen receptor-α with His tag) (from UniProt P03372 1-595)”, the binding result with Flag-NLRP3 is given as “binds”.
On to ASC-GFP (from UniProt Q9ULZ3 1-195), for which the binding result in the experiment with Flag-ERα is reported as “binds”.
